Here are results for 61 compounds from publication PMC12670160, “A drug-repurposing screen of FDA- and EMA-approved drugs identifies two NF-κB inhibitors active against eumycetoma” (Journal of Antimicrobial Chemotherapy, 2025).

Structures can show the parent of a compound that is named as a salt. The campaign covered roughly 5,300 compounds. About 130 (2.5%) showed an effect of 50% or more. This is one part of the list. Bridge positions count the residues as written; N and C are the ends. Square brackets hold non-standard residues; d marks the D form. Peptide text beside a SMILES is read from it. ξ: configuration not given here. ξThr(3R) = C[C@@H](O)C(N)C(=O)O; Orn = NCCC[C@H](N)C(=O)O; Mpa = O=C(O)CCS

The experiment has as its system M. mycetomatis strain mm55. To be noted: primary screen, metabolic activity vs growth control; 96 h, 2 µM; inhibitor.
As to `O=C(O)[C@H]1O[C@@H](Oc2cc3oc(-c4ccccc4)cc(=O)c3c(O)c2O)[C@H](O)[C@@H](O)[C@@H]1O` [ONC0004947, baicalin], the “% viability” value is 61.05%.
Next, `Cn1cc(-c2ccncc2)c(-c2ccc(OCc3ccc4ccccc4n3)cc2)n1` [ONC0005056, pf2545920]: 63.74%.
On to `C[C@H](Nc1ncnc2[nH]cnc12)c1cc2ccc(F)cc2nc1-c1ccccn1` [ONC0001000, amg319], for which the “% viability” value is 84.25%.
Next, `CN(C)CCCN1c2ccccc2Sc2ccc(Cl)cc21` [ONC0000296, chlorpromazine hydrochloride]: 104.4%; `COc1ccccc1N1CCN(CCCCN2C(=O)CCC2=O)CC1` [ONC0002629, mm77]: 66.25%.
Next, `CCCCCCCCCCCCCCCCOP(=O)(O)OCC[N+](C)(C)C` [ONC0004041, miltefosine 5mm]: 72.45%; `CC(=O)[C@]1(N)Cc2c(O)c3c(c(O)c2[C@@H](O[C@H]2C[C@H](O)[C@H](O)CO2)C1)C(=O)c1ccccc1C3=O` [ONC0003637, amrubicin]: 78.63%; `NCCOB(c1ccccc1)c1ccccc1` [ONC0000031, 2apb]: 77.67%.
`O=C(O)COc1ccc(/C=C2\SC(=O)NC2=O)cc1` [ONC0002539, tcs3035]: the “% viability” value was determined as 56%.
Next, `O=C(CCCN1CCC2(CC1)C(=O)N(Cc1cccc(F)c1)CN2c1ccccc1)c1ccc(F)cc1` [ONC0004290, 3fluorobenzylspiperone]: 71.07%.
As for `O=c1ccc2ccccc2o1` [ONC0000316, coumarin], the “% viability” value was found to be 70.83%.
With `Cc1nc(-c2cccnc2)sc1C(=O)Nc1ccccc1-c1cn2c(CN3CCOCC3)csc2n1` [ONC0004386, srt2104 gsk2245840] the figure was 108.4%.
With `CCOc1ccc(C[C@H]2NC(=O)CCSSC[C@@H](C(=O)N3CCC[C@H]3C(=O)N[C@@H](CCCN)C(=O)NCC(N)=O)NC(=O)[C@H](CC(N)=O)NC(=O)[C@H]([C@@H](C)O)NC(=O)[C@H]([C@@H](C)CC)NC2=O)cc1` [ONC0002189, atosiban] ([Mpa][dY](Et)I[ξThr(3R)]NCP[Orn]G-NH2; disulfide 1-6) the figure was 60.69%; with `O=C(O)c1c(Sc2ccccc2)c2cc(Cl)ccc2n1Cc1ccc(Cl)cc1` [ONC0000171, ntzdpa], 101.5%; with `COc1cc([C@@H]2c3cc4c(cc3[C@@H](O[C@@H]3O[C@@H]5CO[C@@H](c6cccs6)O[C@H]5[C@H](O)[C@H]3O)[C@H]3COC(=O)[C@H]23)OCO4)cc(OC)c1O` [ONC0002385, teniposide], 126.4%.
With `Cc1ncc(C[n+]2csc(CCO[P@](=O)(O)OP(=O)(O)O)c2C)c(N)n1` [ONC0002796, thiamine pyrophosphate chloride] the figure was 94.34%; with `O=C1NC(=O)/C(=C/c2ccc3c(c2)OC(F)(F)O3)S1` [ONC0005203, as604850], 141.3%; with `CCCCOc1cc(CC2CNC(=O)N2)ccc1OC` (stereo not shown) [ONC0001719, ro201724], 81.8%.
`[H]/N=C(/N)NS(=O)(=O)c1ccc(N)cc1` [ONC0000656, sulfaguanidine]: the “% viability” value is reported as 136.5%.
With `CCN(CC)C(=O)c1ccc(C2=CC3(CCNCC3)Oc3cccc(O)c32)cc1` [ONC0004697, adl5859 hcl] the figure was 106.5%.
`OCc1ccccc1O` [ONC0003422, salicyl alcohol]: the “% viability” value was found to be 114.5%.
Next, `CCN(CC)CCCC(C)Nc1nc(C)cc(Nc2ccc3nc(C)cc(N)c3c2)n1` (stereo not shown) [ONC0000008, nsc23766]: 97.4%; `CNC(=O)[C@H]1O[C@@H](n2cnc3c(NCc4cccc(I)c4)nc(Cl)nc32)[C@H](O)[C@@H]1O` [ONC0000076, cf102]: 94.23%; `COc1c(N2CCNC(C)C2)c(F)cc2c(=O)c(C(=O)O)cn(C3CC3)c12` (stereo not shown) [ONC0003878, gatifloxacin]: 69%.
With `CCOC(=O)[C@@](C)(N)Cc1ccc(O)c(O)c1` [ONC0002917, methyldopate] the figure was 83.67%; with `O=C(c1ccccc1)c1ccc2n1CCC2C(=O)O` (stereo not shown) [ONC0002333, ketorolac tromethamine], 86.49%.
For the compound `O=C(O)c1ccccc1NC(=O)N1CCC(c2ccccc2C(F)(F)F)CC1` [ONC0001714, a1120], the “% viability” value is 62.04%.
Next, `COCCNC(=O)Cn1cnc([N+](=O)[O-])n1` [ONC0002969, sanazole]: 82.13%; `C#CCC(Cc1cnc2nc(N)nc(N)c2n1)c1ccc(C(=O)N[C@@H](CCC(=O)O)C(=O)O)cc1` (stereo partly shown) [ONC0004878, pralatrexatefolotyn]: 130.7%; `CC(C)(C)NCC(O)COc1cccc2[nH]c(=O)[nH]c12` (stereo not shown) [ONC0000086, cgp12177]: 91%.
As for `O=C(C[S+]([O-])Cc1ccco1)NC/C=C\COc1cc(CN2CCCCC2)ccn1` (stereo not shown) [ONC0004911, lafutidine], the “% viability” value is 110.6%.
Next, `CCOC(=O)NNc1ccc(N(CC)CC(C)O)nn1` (stereo not shown) [ONC0001944, cadralazine]: 72.29%.
Next, `CN(C)CC(c1ccc(O)cc1)C1(O)CCCCC1` (stereo not shown) [ONC0003892, desvenlafaxine succinate]: 60.72%; `C[n+]1cccc(C(=O)O)c1` [ONC0003448, trigonellinehcl]: 47.48%.
Take `O=C(NOCC(O)CO)c1cc(Br)c(F)c(F)c1Nc1ccc(I)cc1F` (stereo not shown) [ONC0004603, pd318088]: the “% viability” value came out at 57.16%.
Next, `NC(=O)CCCCn1ccc(/N=C(\N)NCC(F)(F)F)n1` [ONC0000845, ici162846]: 70.25%.
With `CN(CC[C@@H](Oc1ccc(-c2ccccc2)cc1)c1ccc(F)cc1)CC(=O)O` [ONC0001910, alx5407] the figure was 63.49%.
With `CCCCCCCCCCCCCCCCCC[S+](CCC)c1ccccc1C(=O)OCC` (stereo not shown) [ONC0005529, ac1ndss5] the figure was 106.8%.
For `O=[N+]([O-])NC1=NCCN1Cc1ccc(Cl)nc1` [ONC0002757, imidacloprid], the “% viability” value worked out at 125.1%.
Next, `Cc1ccc2nc(N)[nH]c(=O)c2c1Sc1ccncc1` [ONC0000279, nolatrexed dihydrochloride]: 63.86%; `C=C[C@]1(C)CC[C@@H](C(=C)C)C[C@H]1C(=C)C` [ONC0003857, betaelemene]: 65.57%.
With `O=C(Nc1ccccc1Br)N[C@@H]1CCN(c2ccc(C(F)(F)F)cn2)C1` [ONC0004753, sb705498] the figure was 92.91%.
With `COC(=O)[C@@]12OC[C@]34[C@H]([C@@H](O)[C@@H]1O)[C@@]1(C)CC(=O)C(O)=C(C)[C@@H]1C[C@H]3OC(=O)[C@H](OC(=O)/C=C(\C)C(C)C)[C@@H]24` [ONC0001105, bruceantin] the figure was 72.53%; with `COc1ccc(S(=O)(=O)N(CCO)c2ccccc2CN(C)C/C=C/c2ccc(Cl)cc2)cc1` [ONC0005589, kn93], 94.36%.
For `COC(=O)N1CC[C@@H]2[C@H]1CCC[C@@]2(O)C#Cc1cccc(C)c1` [ONC0002206, mavoglurant], the “% viability” value was found to be 86.89%.
With `C=CCN1C[C@H](C)N([C@H](c2ccc(C(=O)N(CC)CC)cc2)c2cccc(O)c2)C[C@H]1C` [ONC0001565, bw373u86] the figure was 111%; with `O=C(O)CCc1cc(I)c(Oc2ccc(O)cc2)c(I)c1` [ONC0002173, diiodothyropropionicacid], 86.95%; with `CSc1ccccc1Nc1nc(N2CCNCC2)nc2c(NCC3CC3)ncnc12.Cl` [ONC0001097, khkin1 hydrochloride], 76.94%.
As to `c1ccc(CNc2ncnc3nc[nH]c23)cc1` [ONC0002348, 6benzylaminopurine], the “% viability” value is listed as 76.84%.
With `NS(=O)(=O)c1ccc(-n2nc(C(F)(F)F)cc2-c2ccc(Cl)cc2)cc1` [ONC0001433, sc236] the figure was 79.78%; with `O=C1NC(=O)C(=Cc2ccc(-c3ccc(F)cc3)o2)S1` (stereo in doubt) [ONC0005200, cay10505], 213%.
On to `CC(C)(O)c1ccccc1CC[C@@H](SCC1(CC(=O)O)CC1)c1cccc(/C=C/c2ccc3ccc(Cl)cc3n2)c1` [ONC0004006, montelukast sodium], for which the “% viability” value is listed as 92.07%.
Next, `CC(C)c1cc(C(C)C)c(-c2csc(N(CCN(C)C)Cc3cccnc3)n2)c(C(C)C)c1` [ONC0005406, foropafant]: 117%; `O=C1NC(=O)C(c2ccccc2)(c2ccccc2)N1` [ONC0000481, phenytoin sodium]: 60.33%; `CN1CCC2=C(C1)C(c1ccccc1)c1ccccc12` (stereo not shown) [ONC0001922, phenindamine]: 47.96%.
On to `C1=C/COCc2cc(ccc2OCCN2CCCC2)Nc2nccc(n2)-c2cccc(c2)COC/1` [ONC0004380, pacritinib sb1518], for which the “% viability” value was 107.6%.
With `O=C(Nc1ccccc1)Nc1ccc(-c2ccc(C(=O)[C@@H]3CCC[C@H]3C(=O)O)cc2)cc1` [ONC0004312, a922500] the figure was 88.03%; with `Nc1ccc(C(=O)OCC(O)CO)cc1` (stereo not shown) [ONC0005452, lisadimate], 96.74%; with `OC[C@@H](O)[C@@H](O)[C@@H](O)CO` [ONC0002737, ribitol adonitol], 100.4%.
Next, `CN(C)C/C=C/C(=O)Nc1cc2c(Nc3ccc(F)c(Cl)c3)ncnc2cc1O[C@H]1CCOC1` [ONC0000723, afatinib dimaleate]: 74.8%.
Next, `CN1Cc2c(N)cccc2C(c2ccccc2)C1` (stereo not shown) [ONC0001212, nomifensine]: 87.63%.
